Reference: patent publication US10226498B2, “Antiangiogenic use of liquid phytocomplexes from olive” (FATTORIA LA VIALLA DI GIANNI, ANTONIO E BANDINO LO …, priority 2013, dated 2019)
At least one structure is not confirmed: it was looked up by name or label, or the drawing left a doubt.

Legend:
Format in all cases: cell-based, human
[1] = tested on: HUVE cells; experiment: Oxidative stress (DCFH-DA), samples added before treatment with H2O2; conditions: dilutions 1:2500-1:250, 30 min pre-treatment before H2O2
[2] = tested on: HUVE cells; experiment: Apoptosis evaluation by annexin V and 7-AAD cytofluorimetry; conditions: dilutions 1:2500-1:250, 24 and 48 h
[3] = tested on: HUVE cells; experiment: Morphogenesis assay in matrigel (tubular structure formation); conditions: 24 h pre-treatment at 1:500 and 1:250 dilutions, read after 6 h in matrigel
[4] = tested on: HUVE cells; experiment: Oxidative stress (DCFH-DA), samples added after treatment with H2O2; conditions: dilutions 1:2500-1:250, after 250 μM H2O2
[5] = tested on: HUVE cells; experiment: Migration (chemotaxis) assay, Boyden chambers, collagen filters; conditions: higher dilutions (above 1:250), 24 h pre-treatment, 6 h migration

SMILES: OCCc1ccc(O)c(O)c1 [Hydroxytyrosol]
- protective / antioxidant effect against oxidative stress [1]: no significant antioxidant effect
- effect on apoptosis / cellular necrosis [2]: does not increase cellular necrosis
- formation of stable tubular structures by the endothelial cells [3]: capable of interfering with the formation of structures stable tubular structures by the endothelial cells in a dose-dependent manner
- protective / antioxidant effect against oxidative stress [4]: exerts an antioxidant effect
- migratory capacity of the endothelial cells [5]: increase in migratory capacity
